Library screen at single concentrations

Data taken from ChEMBL document CHEMBL3988442, “University of Dundee, Small-Polar-MMV Screening Library” (2021).

A: 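Whole-parasite assay of Trypanosoma brucei over 72 hours; the read-out is not stated. Concentration: 30 µM. The record gives no direction; compounds that gave an IC50 in retests scored well above the rest, so higher reads as stronger inhibition. Values scatter widely below zero; nearly all retest evidence comes from the higher of the two concentrations used. Of about 64,000 compounds tested this way, about 940 (1.5%) reached 50% or more in at least one test.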
B: 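Cell assay of Leishmania donovani living inside macrophages; the read-out is not stated. Tested at 30 µM. Direction is inferred from retests: higher values go with stronger inhibition. Size under these conditions: about 69,000 compounds, about 1,000 of them at 50% or above in at least one test.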
C: 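Assay of Toxoplasma gondii numbers, read through their beta-galactosidase reporter with a colour substrate. Concentration: 10 µM. The record gives no direction; the compounds picked for IC50 retests had high values, so higher reads as fewer parasites. About 67,000 compounds were tested under these conditions; 0.38% (about 260) showed 50% or more at least once.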

Results are given as percent effect. The record does not define 0% and 100%; most values in the screen are far below 50% and negative numbers occur (in some assays of this library far below -100). This is an unselected part of the compounds tested. Two or more numbers in one place are separate tests of the same structure; such repeats can differ widely. A dash means the value is not listed here; it may have been measured.

| structure | A | B | C |
|---|---|---|---|
| `CC(C)c1noc(Cn2ncn3cccc3c2=O)n1` | -29.3 | 24.67 | 0.23 |
| `CC(C)n1nc(Cn2cccn2)c2c1CN(C1CCOCC1)C2.O=C(O)C(F)(F)F` | -8.744 | -2.042 | 0.6439 |
| `[H][C@@]12CCN(c3ccncn3)C[C@@]1([H])[C@H](C(=O)Nc1cccnc1C)CCO2` | -0.6198 | 0.2772 | -36.35 |
| `CCC(O)CN1CCN(C(=O)c2cnc3n[nH]c(C)c3c2)CC1` (stereo not given) | -28.34 | -8.803 | 14.92 |
| `[H][C@]12CCCCN1CCC[C@@]2(O)CN1CCN(Cc2ccncc2)CC1` | 11.52 | 28.37 | 2.304 |
| `COCc1nc(C(=O)N2CCCC2c2cccs2)cs1` (stereo not given) | -4.535 | 18.6 | -11.3 |
| `CCOCCn1c(=O)[nH]c2cc(C(=O)N(C)Cc3nc(C)c[nH]3)ccc21` | -4.272 | -5.241 | 5.051 |
| `CN(C)S(=O)(=O)N1CCC2(CC1)CC(Oc1ccccn1)CO2.O=C(O)C(F)(F)F` (stereo not given) | -83.84 | 28.63 | -12.79 |
| `COc1cccc(C2CCCN2Cc2nnnn2C2CC2)c1` (stereo not given) | 7.439 | -15.33 | 4.211 |
| `CN1C(=O)CC(C(=O)O)C12CCN(c1ccc3cccc(Cl)c3n1)CC2` (stereo not given) | 26.29 | 18.36 | -17.67 |
| `CC(C1CCN(Cc2c(Cl)cncc2Cl)CC1)N1CCOCC1` (stereo not given) | -22.75 | -2.846 | -2.307 |
| `C[C@@H]1CN(Cc2cc(C3CCCCC3)no2)CC[C@@]1(O)C1CC1` | -12.85 | -0.6676 | -17.63 |
| `N#Cc1ccnc(N2CCN(Cc3cccc(F)c3)CC2)c1` | -4.19 | 9.583 | 1.01 |
| `Nc1ccnc(C(=O)N2CCCC3(CCC(=O)N(C4CCCC4)C3)C2)c1` (stereo not given) | 10.81 | 13.29 | 0.2351 |
| `COc1c(CNCC(O)c2cccc(F)c2)c(C(C)C)nn1C` (stereo not given) | -12.33 | -17.15 | -1.24 |
| `CN(C)[C@@H]1CCN(c2ncccn2)[C@H]1Cc1cccnc1.O=C(O)C(F)(F)F.O=C(O)C(F)(F)F` | 5.558 | 15.87 | -1.355 |
| `Cc1cc(C(=O)NCc2ccnc(N3CCN(C)CC3)c2)sc1C` | - | 22.44 | 35.44 |
| `O=C(O)C(F)(F)F.O=C(O)C(F)(F)F.[H][C@@]12CCCO[C@]1([H])[C@H](OCc1ccccn1)CN2Cc1c(C)noc1C` | -32.5 | 9.847 | 8.245 |
| `CSc1ccc(NCC(=O)Nc2c(C)nn(C)c2C)cc1F` | -9.241 | 31.71 | -8.1 |
| `CCNC(=O)N1CCCC(C(=O)c2cccc(OC(C)C)c2)C1` (stereo not given) | -63.46 | -7.522 | 1.01 |
| `c1ccc(CN2CCOC[C@H]2c2nc(-c3ccncc3)c[nH]2)nc1` | -15.49 | 9.756 | -3.644 |
| `Cc1nn(C)c2ncnc(N3CCC(O)(CN4CCCC4)CC3)c12` | 57.4 | 8.338 | -6.193 |
| `CNS(=O)(=O)c1cccc(C(C)NCc2cccc(OC)c2)c1` (stereo not given) | -47.4 | 17.69 | -3.453 |
| `CC(C)n1ccnc1C1CCCN(c2ccccn2)C1` (stereo not given) | 54.17 | 41.26 | -0.2203 |
| `Cc1nc(Cn2c3c(ccc2=O)CCN(CC2CC2)CC3)cs1.O=C(O)C(F)(F)F.O=C(O)C(F)(F)F` | - | -57.24 | -13.92 |
| `COc1ccc(OCCc2sc(C3(O)CCCNCC3)nc2C)cc1.Cl` (stereo not given) | 34.01 | 10.27 | 31.45 |
| `[H][C@@]12C[C@@H](C)O[C@]1([H])CN(C(=O)c1cccc3c1OCCO3)C2` | -25.04 | 18.33 | -4.415 |
| `O=C(c1cccnc1)N1CCOCC2(CCN(c3ncccn3)C2)C1` (stereo not given) | -26.39 | -9.329 | 11.14 |
| `O=C(c1ccncc1F)N1CCOC(c2cccc(O)c2)C1` (stereo not given) | 8.348 | -8.236 | -0.2157 |
| `NC(=O)COc1ccc(C(=O)NCCc2ccco2)cc1` | -8.478 | 30.19 | -1.517 |
| `CO[C@H]1C[C@@H](O)C12CCN(CCCOc1ccc(C(N)=O)cc1)CC2` | -6.659 | -3.319 | -2.195 |
| `COc1ccnc(N2CCN(Cc3ncc(-c4ccccc4)o3)CC2)n1` | -43.48 | -13.74 | 4.725 |
| `O=C(NCc1ccoc1)NC1CCCN(c2ncccn2)C1` (stereo not given) | 18 | 16.35 | 8.095 |
| `CN1CCCC(N(C)C(=O)c2ccc(NC(=O)c3ccc[nH]3)cc2)C1` (stereo not given) | 1.487 | 30.81 | -1.017 |
| `O=C(O)C(F)(F)F.[H][C@]12CC[C@@]3(N=C(C)N(CC(C)C)C3=O)[C@@]1([H])CN(CC(C)C)C2` | -18.24 | 32.3 | 5.641 |
| `CC(CNc1nccc(C(C)C)n1)Oc1cccnc1` (stereo not given) | -17.81 | 25.42 | 7.998 |
| `Cc1cnn(CC(C)NCc2ccc(C#N)cc2F)c1` (stereo not given) | 6.213 | -29.67 | -7.366 |
| `Cc1n[nH]c(C2CN(C(=O)c3cc4c(s3)CCC4)CCO2)n1` (stereo not given) | - | 0 | -12.99 |
| `[H][C@@]12CCN(c3cnccn3)C[C@@]1(C(=O)O)CCCN2Cc1nccs1` | -9.263 | 7.571 | 1.379 |
| `COCC1c2c(cnn2CC2CCOCC2)CCN1Cc1ccoc1.O=C(O)C(F)(F)F.O=C(O)C(F)(F)F` (stereo not given) | -16.82 | 22.7 | -13.01 |
| `CCc1c(C)nc(SCc2ccccn2)[nH]c1=O` | -16.34 | -24.1 | 6.278 |
| `c1ccc(-c2nccc(CNC3CCc4ncnn4C3)n2)cc1` (stereo not given) | 3.528 | 0.9152 | -2.874 |
| `c1ccc(CCc2n[nH]c(C3CCC3)n2)cc1` | -35.4 | 31.05 | 11.24 |
| `CCc1n[nH]c(C2CN(Cc3nnc(C4CCC4)o3)CCO2)n1` (stereo not given) | - | 21.93 | -27.53 |
| `Cc1[nH]nc(CCC(=O)N2CCc3ncnc(NCCO)c3CC2)c1C` | -37 | 13.98 | -6.543 |
| `CC(C)Oc1ccc(CNC(=O)C2CCS(=O)(=O)C2)cn1` (stereo not given) | -46.02 | -6.072 | -34.1 |
| `O=C(Nc1cccnc1)Nc1cccc(CN2CCC(O)CC2)c1` | -49.73 | 4.695 | 8.333 |
| `CCN(Cc1noc(C(C)C)n1)Cc1ccc(C#N)cc1F` | -21.49 | -32.85 | -2.54 |
| `O=C(O)C(F)(F)F.[H][C@@]12CN(CC3CC3)C[C@@]1([H])N(Cc1cccc(F)c1)C(=O)CO2` | -11.12 | -1.859 | -7.078 |
| `Cc1nc(C(=O)N2CCC(Cc3cnc4[nH]ccc4c3)C2)co1` (stereo not given) | -28.68 | 14.17 | -26.36 |
| `Cc1cccc(N2CCOC(C(=O)O)C2)c1` (stereo not given) | -8.943 | 25.07 | -2.924 |
| `COc1cccc(S(=O)(=O)NC(=O)COC2CCCC2)c1` | 23.93 | 15.22 | 1.059 |
| `COc1ccc(C(C)NC(=O)Nc2nnc(C)s2)cc1OC` (stereo not given) | -50.41 | -6.242 | -1.797 |
| `Cc1cnn(CC2CCCCN2C(=O)c2ccc3[nH]cnc3c2)c1` (stereo not given) | - | -13.67 | 23.49 |
| `CC(=O)N1CCC(C(=O)N2CCOC(CC3CCCCC3)C2)CC1` (stereo not given) | -6.716 | -1.614 | 19.99 |
| `CC(c1nc(C2CC2)no1)N1CCc2c(ncn2C)C1` (stereo not given) | -14.47 | 7.66 | 0.9634 |
| `CC(C)c1nccn1C1CCCN(C(=O)CCc2cscn2)C1` (stereo not given) | -15.43 | 7.989 | -40.28 |
| `COc1ccc(CN2CCn3c(CO)nnc3C2)cc1CN1CCCC1.O=C(O)CC(O)(CC(=O)O)C(=O)O` | -29.63 | 21.75 and 16.74 | 5.211 |
| `CCNC(=O)NC(=O)CNC1(c2noc(C)n2)CCCC1` | -29.34 | 40.28 | 4.79 |
| `CN(C(=O)CCc1nc(C2CC2)no1)c1cc(C#N)c2ccccc2n1` | -1.133 | -8.685 | 10.69 |
| `COCc1csc(NC(=O)NCc2ccccn2)n1` | -20.34 | -3.075 | -2.183 |
| `Cc1cnn(CCNCc2c(C(C)C)nn(C)c2Cl)c1` | -34.48 | -46.04 | -0.9302 |
| `CS(=O)(=O)CCn1ccc(NC(=O)CCc2cccc(F)c2)n1` | -10.46 | 35.35 | 3.836 |
| `NS(=O)(=O)c1cccnc1Nc1cccc(Cl)c1Cl` | 0.9155 | 7.348 | 12.29 |